Experimental findings from paper PMC3895043 are described below.

The chains behind the UniProt entries cited, without tags or fusion partners.
UniProt P43588: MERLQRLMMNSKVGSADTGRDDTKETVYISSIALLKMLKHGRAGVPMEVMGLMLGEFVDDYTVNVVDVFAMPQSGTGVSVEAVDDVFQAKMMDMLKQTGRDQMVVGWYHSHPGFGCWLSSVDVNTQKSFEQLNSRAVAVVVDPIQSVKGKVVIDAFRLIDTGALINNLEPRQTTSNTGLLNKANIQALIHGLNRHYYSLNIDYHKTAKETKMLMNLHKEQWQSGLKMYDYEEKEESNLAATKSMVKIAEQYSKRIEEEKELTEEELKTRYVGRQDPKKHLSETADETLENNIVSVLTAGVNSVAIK

Experiment [1] has as its target Rpn11-ProteinA tagged subunit of the proteasome (S. cerevisiae) (UniProt P43588). Kind of experiment: pull-down; RP purified via Rpn11-ProteinA from caf1Δ and not4Δ cells under high salt; western blot of the purified material with anti-Rpt1 and anti-α1-7; in-gel activity on a 3-12% native gel. Background: A western blot detects proteins with antibodies after separation by electrophoresis.

Experiment [2] shares this target. Kind of experiment: pull-down; RP purified via Rpn11-ProteinA from wild-type and ccr4Δ cells under high salt; western blot of the purified material with anti-Rpt1 and anti-α1-7; in-gel activity on a 3-12% native gel.

Results are given in words; binding and its absence hold for the method and conditions named. Binding seen in cells or lysates may run through a third protein. Some entries that bind do so weakly or less than the wild type.

B1: Rpt1 (protein, UniProt P33299 1-467)
chain: MPPKEDWEKYKAPLEDDDKKPDDDKIVPLTEGDIQVLKSYGAAPYAAKLKQTENDLKDIEARIKEKAGVKESDTGLAPSHLWDIMGDRQRLGEEHPLQVARCTKIIKGNGESDETTTDNNNSGNSNSNSNQQSTDADEDDEDAKYVINLKQIAKFVVGLGERVSPTDIEEGMRVGVDRSKYNIELPLPPRIDPSVTMMTVEEKPDVTYSDVGGCKDQIEKLREVVELPLLSPERFATLGIDPPKGILLYGPPGTGKTLCARAVANRTDATFIRVIGSELVQKYVGEGARMVRELFEMARTKKACIIFFDEIDAVGGARFDDGAGGDNEVQRTMLELITQLDGFDPRGNIKVMFATNRPNTLDPALLRPGRIDRKVEFSLPDLEGRANIFRIHSKSMSVERGIRWELISRLCPNSTGAELRSVCTEAGMFAIRARRKVATEKDFLKAVDKVISGYKKFSSTSRYMQYN
For B1, the binding entry in experiment [1] and in experiment [2] was “binds” in each case.
